Experimental data from patent publication EP0352817A2, “Monoclonal antibody to catecholamine metabolite and quantitative assay for catecholamine metabolite” (ORIENTAL YEAST CO., LTD., priority 1988, dated 1990).
Some results were stated once for a whole list of compounds, not compound by compound.

Tested on: monoclonal antibody specific to the catecholamine metabolite containing 3-methoxy, 4-hydroxy group therein
Experiment: competitive EIA on VMA-BSA-immobilized microtiter plate: reactivity of the monoclonal antibody with catecholamine metabolites and their catechols
Assay type: binding, BALB/c mice
Conditions: purified monoclonal antibody

COc1cc(C(O)C(=O)O)ccc1O (stereo not shown) [Vanillylmandelic acid]
reactivity of the monoclonal antibody with the substance: particularly well reactive
